Record: PubChem BioAssay AID720505 (Drosophila RNAi Screening Center, 2013)
Screen: 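Genes needed for store-operated calcium entry in fly cells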 (primary screen). System: Drosophila S2R+ cells. Reagents: long dsRNA against Drosophila genes. Treatment: thapsigargin (2 µM) in calcium-free buffer to empty internal stores, then 2 mM calcium added back. Read-out: 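Stores emptied by 2 µM thapsigargin without calcium, then 2 mM calcium re-added; fluo-4 fluorescence followed by FLIPR in 384-well plates, per-well averaged endpoint, raw; two screen passes, some wells retested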. Reading the numbers: calcium signal and retest calcium signal: higher = more calcium entry after store depletion. Rule for the call: 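Knock-downs counted as hits when calcium entry dropped relative to STIM1 positive and Rho1 negative controls present on each plate; roughly 1500 genes called, with reductions of differing size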. Calls: active = called as lowering calcium entry; inactive = not called.
The screen tested about 20,000 reagents; below is a random part of those that have a named target and a result. Of all reagents, about 2,100 (10%) were called active. 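Raw plate signals without normalisation; calls rest on control-based scores that were not deposited; replicate 2 separates called from uncalled poorly.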 Unmarked entries are inactive. A plus sign joins genes that one reagent is predicted to hit. No sequences are given here. Not given: the amount of reagent, the time to read-out.

Gene | DRSC id | calcium signal, replicate 1 | calcium signal, replicate 2 | retest calcium signal, replicate 1 | retest calcium signal, replicate 2
CG31463 | DRSC14346 | 93.5 | 174 | – | –
al | DRSC00799 | 183 | 140 | 104 | 88.2
Kdm5 | DRSC03133 | 120 | 152 | – | –
Tdc1 | DRSC04942 | 131 | 144 | – | –
Efhc1.1 | DRSC20135 | 133 | 125 | – | –
Hsp110 | DRSC11186 | 95.9 | 111 | – | –
hbt | DRSC01310 | 285 | 123 | – | –
hbt | DRSC02549 | 96 | 125 | – | –
CIA30 | DRSC16266 | 105 | 108 | – | –
eEF1alpha1 | DRSC07421 | 104 | 228 | – | –
CG4593 | DRSC18374 | 195 | 91.6 | – | –
Gat | DRSC17144 | 122 | 151 | – | –
CG15579 | DRSC18067 | 288 | 172 | – | –
CG10357 | DRSC08155 | 77.8 | 109 | – | –
eIF3g2 | DRSC14275 | 123 | 130 | – | –
CG13204 | DRSC06328 | 128 | 155 | – | –
Arfrp1 | DRSC18417 | 130 | 124 | – | –
Cul1 | DRSC07645 | 170 | 156 | – | –
Tbca | DRSC15395 | 97.4 | 90.1 | – | –
Ddx1 | DRSC11862 | 131 | 117 | – | –
nkd | DRSC11376 | 96.5 | 133 | – | –
CG6006 | DRSC15946 | 138 | 243 | – | –
PCNA2 | DRSC02030 | 63.2 | 231 | – | –
Scp2 | DRSC16854 | 87.3 | 66.8 | – | –
Mrp4 | DRSC14931 | 129 | 135 | – | –
CG14020 | DRSC02350 | 69.8 (active) | 141 | – | –
CG9222 | DRSC03158 | 72 (active) | 137 | – | –
a6 | DRSC18733 | 87.9 | 102 | – | –
Swt1 | DRSC20028 | 153 | 141 | – | –
Cyp12b2 | DRSC07364 | 156 | 163 | – | –
Dph5 | DRSC16653 | 186 | 233 | – | –
HSPC300 | DRSC22880 | 88 | 104 | – | –
CG43349 | DRSC00039 | 115 | 139 | 70.3 | 96.6
CG17168 | DRSC20904 | 46.4 (active) | 124 | – | –
myo | DRSC17174 | 134 | 122 | – | –
CG7299 | DRSC03043 | 194 | 177 | – | –
mute | DRSC06562 | 89.6 | 89.8 | – | –
mute | DRSC22931 | 101 | 159 | – | –
CG31098 | DRSC14259 | 218 | 84.3 | – | –
csw | DRSC18756 | 97.2 | 113 | – | –
csw | DRSC23326 | 149 | 164 | – | –
CG8405 | DRSC05599 | 44.3 (active) | 96.5 | – | –
CG8405 | DRSC07166 | 129 | 102 | – | –
Tailor | DRSC12526 | 130 | 183 | – | –
Sbat | DRSC00160 | 74.2 | 176 | – | –
Sf3b6 | DRSC09972 | 89.5 | 92.9 | – | –
Eglp1 | DRSC04502 | 174 | 88 | – | –
Hex-A | DRSC18259 | 64.5 (active) | 67.9 | – | –
r + CG13012 | DRSC19531 | 85.4 | 98.2 | – | –
shrb | DRSC07061 | 146 | 94.1 | – | –
glob1 | DRSC16959 | 123 | 201 | – | –
CG1503 | DRSC20512 | 218 | 192 | – | –
CG11656 | DRSC14338 | 106 | 102 | – | –
lncRNA:CR31781 | DRSC02431 | 117 | 113 | – | –
lncRNA:CR31781 | DRSC02432 | 119 | 106 | – | –
CG7006 | DRSC16169 | 164 | 253 | – | –
CG3651 | DRSC03730 | 172 | 147 | – | –
CG13978 | DRSC14720 | 194 | 162 | – | –
ND6 (retired record) | DRSC21271 | 71.5 (active) | 147 | 8445 | 158
CG10472 | DRSC09730 | 72.3 (active) | 104 | – | –
scrib | DRSC15809 | 114 | 138 | – | –
scrib | DRSC17051 | 67.3 (active) | 108 | – | –
AdipoR | DRSC15767 | 207 | 211 | – | –
Ir92a | DRSC15111 | 141 | 113 | – | –
Hecw | DRSC18261 | 98.2 | 104 | – | –
Hecw | DRSC18276 | 64.5 (active) | 108 | – | –
GluRIIA | DRSC03334 | 123 | 110 | – | –
chic | DRSC03507 | 168 | 97.5 | – | –
ytr | DRSC04306 | 104 | 100 | – | –
ytr | DRSC22073 | 93.8 | 258 | – | –
Drsl6 | DRSC08161 | 60.8 | 93.7 | – | –
Ccp84Ag | DRSC12592 | 171 | 157 | – | –
Ccp84Ag | DRSC22085 | 91.3 | 204 | – | –
RanGAP | DRSC22003 | 56.2 (active) | 156 | – | –
CG13716 | DRSC08325 | 79.5 | 65.5 | 105 | 103
CG13716 | DRSC22815 | 102 | 88.8 | – | –
CG11381 | DRSC17780 | 125 | 113 | – | –
CG13800 (retired record) | DRSC08334 | 118 | 96.5 | – | –
Ide | DRSC11867 | 128 | 86 | – | –
CG10038 | DRSC14178 | 137 | 131 | – | –
CG9154 | DRSC03150 | 107 | 271 | – | –
COX4L | DRSC04841 | 114 | 156 | – | –
ND4 (retired record) | DRSC21269 | 75.7 (active) | 107 | – | –

In a second layout: 13 of the entries above
Gene	DRSC id	calcium signal, replicate 1	calcium signal, replicate 2	retest calcium signal, replicate 1	retest calcium signal, replicate 2
CG10357	DRSC08155	77.8	109		
eIF3g2	DRSC14275	123	130		
CG13204	DRSC06328	128	155		
Arfrp1	DRSC18417	130	124		
Cul1	DRSC07645	170	156		
Tbca	DRSC15395	97.4	90.1		
Ddx1	DRSC11862	131	117		
nkd	DRSC11376	96.5	133		
CG6006	DRSC15946	138	243		
PCNA2	DRSC02030	63.2	231		
Scp2	DRSC16854	87.3	66.8		
Mrp4	DRSC14931	129	135		
CG14020	DRSC02350	69.8 (active)	141		
